The supplement of paper PMC6445147
This is a noisy data set.

B1: human tRNA-Pro; a variant is named by its letters at N, in order (parent)
chain: GGCTCGTTGGTCTAGNGGTATGATTCTCGCTTAGGGTGCGAGAGGTCCCGGGTTCNNATCCCGGACGAGCCC

Variants of: B1
Test: tRNA 3' processing efficiency (processed reads / all reads, maximum-likelihood estimate) (fraction); higher = more efficient 3' processing
Settings: HEK293T; construct: no Pol-II promoter ((-)CMV library)

| Variant | tRNA 3' processing efficiency |
| --- | --- |
| GAA T8G A58G T59A | 0.25 |
| GAG G15C T19C T53A | 0.43 |
| GAG A14C G15A G17T | 0.29 |
| GAC A14C T19A G34A | 0.2 |
| GAT G9T A14G G15T | 0.17 |
| AAG G29A | 0.25 |
| GAG A14G A20C A58G | 0.2 |
| CAA T8C T19A T53A | 0.72 |
| CAT G9T A14T G15C | 0.5 |
| TAT G9A T19G | 0.25 |
| GAC A14T G15C T19G | 0.4 |
| CAA T19A A20G T53G | 0.62 |
| GAC A14G A20T A58T | 0.56 |
| AAA T53C T59G | 0.25 |
| GAA T8G A14T G17C G18C A58G T59G | 0.2 |
| TAT A20G A58G | 0.2 |
| CAG A14G T19A | 0.79 |
| GAG G15A G17A A58T | 0.89 |
| GAA T8G G18A T19C T59C | 0.1 |
| TAG A14T A20T | 0.25 |
| GAG A14T G15T G17C G18A A58T C70T | 0.7 |
| CAA T19G A58G T59A | 0.15 |
| GAG C49T | 0.62 |
| CAT A20T A58G | 0.15 |

| Variant | tRNA 3' processing efficiency |
| --- | --- |
| GAC T8A G17C A58T | 0.43 |
| TAC A58T T59A | 0.33 |
| GAA T8G G18A A58G T59A | 0.44 |
| CAT A14G G18A | 0.56 |
| CAG T8G A14G G18C | 0.25 |
| GAC A43C | 0.2 |
| GAC T8G A14C | 0.25 |
| AAC A14G A58C | 0.09 |
| GAC G18A T59C | 0.14 |
| CAT A14C G15A G17C | 0.25 |
| GAG T53A T59C C61T | 0.4 |
| GAG A14C T19A C55G | 0.14 |
| TAT G9A A14T T19G | 0.11 |
| GAA T19A G40T | 0.2 |
| CAG G15C A58G | 0.08 |
| TAA T19A C55A T59G | 0.25 |
| GAT A43T | 0.17 |
| CAT G9C T59G | 0.43 |
| AAA T54C C55T A58G | 0.33 |
| CAA T19A A20C T54A T59G | 0.43 |
| GAG A14C G17C G18A | 0.25 |
| GAG A14T G18A T59C | 0.43 |
| AAG G9C T19A A20T | 0.4 |
| TAT G18A T19C T59G | 0.29 |

| Variant | tRNA 3' processing efficiency |
| --- | --- |
| GAC A14G G18T T19A | 0.2 |
| TAG G15C T59G | 0.5 |
| GAA T8C T19C A58C T59C | 0.4 |
| GAC T19A T59C | 0.29 |
| CAT G9A A14C G18C | 0.43 |
| CAG T8C A14G | 0.25 |
| CAG T8C A14T | 0.62 |
| GAG T8G G15T G17C G51A | 0.4 |
| AAA T19A A20T A58T | 0.43 |
| AAG A14G C55G A58T | 0.17 |
| AAC A14C A58C | 0.13 |
| GAA T8G G9T T19A A58C T59A | 0.4 |
| GAG T8A G15C A58T | 0.2 |
| TAG T19A T54A T59C | 0.25 |
| GAC A14G G18A A20G A58G | 0.33 |
| CAA T19A T53G T59G | 0.33 |
| GAA T8G G18A A20C A58T | 0.25 |
| TAG T8G G18C A58G | 0.75 |
| CAT A14T A58T | 0.4 |
| TAA T8C G51C | 0.5 |
| GAA T8G A14C A20T T53A | 0.25 |
| GAC T46C A58T | 0.25 |
| GAA T8G A14T G18A T19C A20T A58C | 0.17 |
| AAG T8G G18C | 0.25 |

| Variant | tRNA 3' processing efficiency |
| --- | --- |
| CAG A14G G51A | 0.08 |
| GAG G15C T19A T59A | 0.25 |
| GAT G9T G38A | 0.4 |
| AAC T19G T53A A58G | 0.58 |
| TAA T19A T53A A58C | 0.25 |
| GAG A33G | 0.5 |
| AAG T8C A14G A20G | 0.23 |
| GAG G15C T19A A20T | 0.13 |
| GAG G17A G18A T54A | 0.44 |
| AAG A20G T59C | 0.25 |
| CAG T19A T59C | 0.62 |
| GAA T8G G9C G15A A20G A58G | 0.4 |
| GAG G9A G15T G18T | 0.25 |
| TAG G9A A14T T19A A20G | 0.2 |
| CAA T53C A58C T59A | 0.29 |
| TAG G17T A58G T59G | 0.33 |
| GAG T19A A20C A58T | 0.38 |
| CAA T19G T59C | 0.4 |
| TAT A14T G15C | 0.25 |
| TAG T8C G15A T59C | 0.2 |
| GAC G9A A20G A58G | 0.25 |
| GAG T8C A33T | 0.2 |
| GAA T8G G17A A20T A58T | 0.25 |
| TAG A33G | 0.2 |

Looked up above:
Entry for GAC A14G G18T T19A under tRNA 3' processing efficiency: 0.2
Entry for GAG C49T under tRNA 3' processing efficiency: 0.62
Entry for CAT A14T A58T under tRNA 3' processing efficiency: 0.4
Entry for AAC A14C A58C under tRNA 3' processing efficiency: 0.13
Entry for CAG G15C A58G under tRNA 3' processing efficiency: 0.08
Entry for GAG T53A T59C C61T under tRNA 3' processing efficiency: 0.4

(further entries)

| Variant | tRNA 3' processing efficiency |
| --- | --- |
| AAA T19G T53A A58G | 0.44 |
| GAT A14G G15A T19G | 0.4 |
| AAG G15A A20T T59C | 0.55 |
| GAA T19A A20C T53A A58G | 0.02 |
| GAA T19A T53A A58G T59A | 0.2 |
| GAA T19A T53A A58G T59G | 0.27 |
| GAT G15A G17C A58T | 0.25 |
| TAG T19C A20C A58G T59A | 0.25 |
| GAC T8A G15T G17A G18C A58T | 0.2 |
| GAC A20G A58G | 0.15 |
| GAG G2A C5A A20T | 0.62 |
| GAT G1C C3G A14C G17C G18C T19A | 0.43 |
| GAA T19A A20T T53A A58G | 0.43 |
| GAC A58G T59G C62T | 0.4 |
| GAG A14G G17T A20T A58G T59C | 0.2 |
| GAA T8G G15C G17A T19G | 0.33 |
| AAT G9A G18T T19G | 0.58 |
| GAG G15A G17T A58T | 0.4 |
| AAA T19A A58C T59A | 0.25 |
| GAT A14G T19A A20T A23T | 0.25 |
| GAA T19C C49T T59G | 0.43 |
| GAA T8G T19C T59C | 0.5 |
| GAA T19A A20T A58G T59A | 0.33 |
| GAG G18A T19G A58T | 0.25 |

| Variant | tRNA 3' processing efficiency |
| --- | --- |
| GAT G2T | 0.45 |
| GAA T19A G51A A58T | 0.25 |
| GAA T19G A23T T59C | 0.25 |
| GAG T8A G18C T19G A20C | 0.25 |
| GAC T8A A14G A20G | 0.25 |
| GAT G15A G17C T19C | 0.4 |
| CAG G9A T19A T53A A58T | 0.25 |
| GAG T19A T53A | 0.2 |
| GAG T19G T46C A58T | 0.4 |
| GAG G17A T19C T53A A58G T59A | 0.67 |
| AAT G9A T19A | 0.25 |
| TAA T19A A20T C55T | 0.25 |
| GAA T19G T54A A58G T59G | 0.4 |
| AAT A14G G17T G18T | 0.29 |
| TAC A14T T19A A20C | 0.25 |
| CAG A58T T59G | 0.33 |
| AAA T8C T19A T59G | 0.33 |
| GAG T19A A20T A58G T59A | 0.2 |
| TAT A14T T19G | 0.5 |
| GAG G15C G17T T19G A58T | 0.25 |
| CAT G9T A23T | 0.2 |
| GAC T8G A14T G15C G17T | 0.14 |
| GAA T8C T19A A58T T59G | 0.2 |
| GAA T8C T19A A58T T59C | 0.62 |

| Variant | tRNA 3' processing efficiency |
| --- | --- |
| GAG T19A C39T | 0.25 |
| GAG T8G G17T T19G A58T | 0.3 |
| TAG G9A A14T A20T | 0.57 |
| GAA T8G G17C A58G C60T | 0.43 |
| GAC A14G G18A T59G | 0.25 |
| GAT A14G G17A T19G | 0.4 |
| AAA T8G G17A G18C T53A | 0.17 |
| AAG A14G G15A | 0.07 |
| TAG T8G G15A A58G | 0.2 |
| GAC A14C G17T T19A | 0.5 |
| GAC G15A G18A T59A | 0.4 |
| GAC T8C A20G T59C | 0.2 |
| GAT G9T T19A A20T A58T | 0.22 |
| GAG A20C C55T C61T | 0.25 |
| GAA T8G A14G G15A T19A A58T | 0.4 |
| GAG A14G G17T A20T | 0.2 |
| TAG T19C A20C A58T | 0.2 |
| AAG A14G T19A | 0.56 |
| GAA T13C A14G A58G T59C | 0.38 |
| GAT G9A G15C | 0.25 |
| AAC G50A | 0.25 |
| CAC G18C A58T | 0.43 |
| TAA T19A A58C T59G | 0.4 |
